# The list shows a part of the results.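 How the source made its calls: active = dose-dependent thermal stabilisation significant by F-test of dose-response against flat model at 10% FDR; inactive = not significant.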
# The chains behind the UniProt entries cited, without tags or fusion partners. Where a name states a change or a piece, a line headed by the entry shows the natural chain unless it says otherwise.
# UniProt Q92994: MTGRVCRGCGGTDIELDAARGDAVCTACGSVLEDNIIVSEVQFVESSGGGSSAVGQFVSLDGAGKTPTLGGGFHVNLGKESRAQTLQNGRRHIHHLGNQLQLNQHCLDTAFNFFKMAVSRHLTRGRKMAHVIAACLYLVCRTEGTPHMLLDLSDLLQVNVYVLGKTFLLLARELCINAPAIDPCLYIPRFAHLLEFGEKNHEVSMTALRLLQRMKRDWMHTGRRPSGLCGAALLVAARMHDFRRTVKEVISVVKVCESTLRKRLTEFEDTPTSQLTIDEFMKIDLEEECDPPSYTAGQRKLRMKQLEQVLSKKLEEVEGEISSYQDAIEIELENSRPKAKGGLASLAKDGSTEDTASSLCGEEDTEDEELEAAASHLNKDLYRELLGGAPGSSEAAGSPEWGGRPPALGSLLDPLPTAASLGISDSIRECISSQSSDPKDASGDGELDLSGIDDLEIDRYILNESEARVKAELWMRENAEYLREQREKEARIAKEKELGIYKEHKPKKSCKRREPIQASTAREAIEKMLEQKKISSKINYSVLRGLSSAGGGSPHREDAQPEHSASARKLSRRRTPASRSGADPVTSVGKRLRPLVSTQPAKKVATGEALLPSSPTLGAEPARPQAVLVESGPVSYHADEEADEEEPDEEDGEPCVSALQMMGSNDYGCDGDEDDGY
# UniProt Q9BUA3: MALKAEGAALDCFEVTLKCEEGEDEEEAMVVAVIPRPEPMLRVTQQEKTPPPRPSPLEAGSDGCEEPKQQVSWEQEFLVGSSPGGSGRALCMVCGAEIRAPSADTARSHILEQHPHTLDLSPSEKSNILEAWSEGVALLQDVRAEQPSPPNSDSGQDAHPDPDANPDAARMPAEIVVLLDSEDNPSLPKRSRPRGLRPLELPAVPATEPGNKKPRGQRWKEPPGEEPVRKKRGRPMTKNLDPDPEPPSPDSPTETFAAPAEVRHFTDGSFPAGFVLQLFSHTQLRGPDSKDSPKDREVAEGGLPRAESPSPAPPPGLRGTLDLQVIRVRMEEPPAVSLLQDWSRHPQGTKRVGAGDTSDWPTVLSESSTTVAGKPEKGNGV
# UniProt P47756, whole entry: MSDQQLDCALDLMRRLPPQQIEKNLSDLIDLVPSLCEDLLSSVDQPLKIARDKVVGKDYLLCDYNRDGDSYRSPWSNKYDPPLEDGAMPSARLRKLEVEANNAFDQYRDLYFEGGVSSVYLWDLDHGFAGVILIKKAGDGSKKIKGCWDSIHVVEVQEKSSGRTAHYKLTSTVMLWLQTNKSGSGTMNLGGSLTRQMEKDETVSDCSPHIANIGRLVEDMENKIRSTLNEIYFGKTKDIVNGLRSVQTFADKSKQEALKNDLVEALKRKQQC
# UniProt Q9BUH6, whole entry: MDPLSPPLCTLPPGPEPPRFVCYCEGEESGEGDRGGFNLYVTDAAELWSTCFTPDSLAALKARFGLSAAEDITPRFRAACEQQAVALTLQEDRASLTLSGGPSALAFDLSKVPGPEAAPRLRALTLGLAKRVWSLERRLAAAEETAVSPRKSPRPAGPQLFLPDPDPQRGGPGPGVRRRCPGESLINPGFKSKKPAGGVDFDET
# UniProt Q8WUR7: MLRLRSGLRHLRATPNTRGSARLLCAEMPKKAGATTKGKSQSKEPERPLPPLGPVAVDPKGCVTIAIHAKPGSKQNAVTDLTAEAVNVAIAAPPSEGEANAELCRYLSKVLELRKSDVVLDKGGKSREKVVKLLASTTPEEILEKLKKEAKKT
# UniProt O75143: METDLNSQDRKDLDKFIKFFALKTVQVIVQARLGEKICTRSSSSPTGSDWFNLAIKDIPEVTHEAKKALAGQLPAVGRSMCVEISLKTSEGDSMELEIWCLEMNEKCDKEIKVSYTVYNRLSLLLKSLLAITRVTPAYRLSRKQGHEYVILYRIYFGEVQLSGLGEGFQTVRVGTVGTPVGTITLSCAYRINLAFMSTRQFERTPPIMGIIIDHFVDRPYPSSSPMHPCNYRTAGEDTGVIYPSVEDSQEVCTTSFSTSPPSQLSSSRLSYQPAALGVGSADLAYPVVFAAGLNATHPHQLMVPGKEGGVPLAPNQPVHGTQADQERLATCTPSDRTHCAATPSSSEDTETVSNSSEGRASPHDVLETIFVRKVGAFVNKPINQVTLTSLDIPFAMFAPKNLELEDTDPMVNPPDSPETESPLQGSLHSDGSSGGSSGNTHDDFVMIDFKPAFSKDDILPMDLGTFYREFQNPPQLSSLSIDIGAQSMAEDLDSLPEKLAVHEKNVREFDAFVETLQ
# UniProt Q9H6S1, whole entry: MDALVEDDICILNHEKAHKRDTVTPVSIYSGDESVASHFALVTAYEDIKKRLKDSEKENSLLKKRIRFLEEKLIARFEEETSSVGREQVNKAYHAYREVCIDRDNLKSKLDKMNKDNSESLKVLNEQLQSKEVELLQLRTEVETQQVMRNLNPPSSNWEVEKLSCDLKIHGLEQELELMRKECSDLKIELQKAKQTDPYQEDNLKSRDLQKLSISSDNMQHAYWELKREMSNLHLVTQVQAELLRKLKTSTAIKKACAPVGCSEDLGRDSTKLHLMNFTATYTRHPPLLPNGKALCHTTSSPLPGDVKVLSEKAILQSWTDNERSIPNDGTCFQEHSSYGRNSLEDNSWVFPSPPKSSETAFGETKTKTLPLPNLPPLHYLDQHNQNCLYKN
# UniProt P17544: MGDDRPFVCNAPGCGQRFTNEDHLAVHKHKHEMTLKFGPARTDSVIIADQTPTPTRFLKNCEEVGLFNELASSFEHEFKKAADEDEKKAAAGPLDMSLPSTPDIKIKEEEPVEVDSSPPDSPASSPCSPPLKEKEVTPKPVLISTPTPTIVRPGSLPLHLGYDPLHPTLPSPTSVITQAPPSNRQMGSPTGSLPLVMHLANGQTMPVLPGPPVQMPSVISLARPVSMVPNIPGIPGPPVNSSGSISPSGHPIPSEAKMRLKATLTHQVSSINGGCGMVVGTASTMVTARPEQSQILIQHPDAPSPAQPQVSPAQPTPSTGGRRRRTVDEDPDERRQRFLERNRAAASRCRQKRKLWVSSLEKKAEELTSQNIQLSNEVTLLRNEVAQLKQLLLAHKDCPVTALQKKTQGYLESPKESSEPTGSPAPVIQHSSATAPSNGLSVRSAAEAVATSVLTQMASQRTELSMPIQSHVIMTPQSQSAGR
# UniProt Q92747, whole entry: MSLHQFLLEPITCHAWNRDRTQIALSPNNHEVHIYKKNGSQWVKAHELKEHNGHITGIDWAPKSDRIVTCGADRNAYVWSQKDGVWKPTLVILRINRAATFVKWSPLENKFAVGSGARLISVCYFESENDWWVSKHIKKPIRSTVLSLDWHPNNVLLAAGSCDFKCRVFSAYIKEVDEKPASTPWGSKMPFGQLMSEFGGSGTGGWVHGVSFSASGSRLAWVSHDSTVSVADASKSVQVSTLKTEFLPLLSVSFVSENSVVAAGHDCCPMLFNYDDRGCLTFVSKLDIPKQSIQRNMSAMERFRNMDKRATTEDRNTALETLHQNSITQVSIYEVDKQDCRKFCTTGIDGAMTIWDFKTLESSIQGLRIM
# UniProt Q67FW5: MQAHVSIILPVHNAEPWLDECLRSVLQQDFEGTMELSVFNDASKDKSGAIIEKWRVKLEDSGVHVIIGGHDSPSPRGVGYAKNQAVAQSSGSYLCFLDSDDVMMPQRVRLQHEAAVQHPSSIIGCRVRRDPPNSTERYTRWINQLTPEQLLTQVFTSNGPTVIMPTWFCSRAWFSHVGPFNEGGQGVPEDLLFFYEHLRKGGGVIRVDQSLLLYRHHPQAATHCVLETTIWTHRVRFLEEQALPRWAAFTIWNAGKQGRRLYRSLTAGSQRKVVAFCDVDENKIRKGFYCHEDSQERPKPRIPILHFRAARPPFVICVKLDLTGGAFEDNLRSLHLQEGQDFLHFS
# UniProt O75155: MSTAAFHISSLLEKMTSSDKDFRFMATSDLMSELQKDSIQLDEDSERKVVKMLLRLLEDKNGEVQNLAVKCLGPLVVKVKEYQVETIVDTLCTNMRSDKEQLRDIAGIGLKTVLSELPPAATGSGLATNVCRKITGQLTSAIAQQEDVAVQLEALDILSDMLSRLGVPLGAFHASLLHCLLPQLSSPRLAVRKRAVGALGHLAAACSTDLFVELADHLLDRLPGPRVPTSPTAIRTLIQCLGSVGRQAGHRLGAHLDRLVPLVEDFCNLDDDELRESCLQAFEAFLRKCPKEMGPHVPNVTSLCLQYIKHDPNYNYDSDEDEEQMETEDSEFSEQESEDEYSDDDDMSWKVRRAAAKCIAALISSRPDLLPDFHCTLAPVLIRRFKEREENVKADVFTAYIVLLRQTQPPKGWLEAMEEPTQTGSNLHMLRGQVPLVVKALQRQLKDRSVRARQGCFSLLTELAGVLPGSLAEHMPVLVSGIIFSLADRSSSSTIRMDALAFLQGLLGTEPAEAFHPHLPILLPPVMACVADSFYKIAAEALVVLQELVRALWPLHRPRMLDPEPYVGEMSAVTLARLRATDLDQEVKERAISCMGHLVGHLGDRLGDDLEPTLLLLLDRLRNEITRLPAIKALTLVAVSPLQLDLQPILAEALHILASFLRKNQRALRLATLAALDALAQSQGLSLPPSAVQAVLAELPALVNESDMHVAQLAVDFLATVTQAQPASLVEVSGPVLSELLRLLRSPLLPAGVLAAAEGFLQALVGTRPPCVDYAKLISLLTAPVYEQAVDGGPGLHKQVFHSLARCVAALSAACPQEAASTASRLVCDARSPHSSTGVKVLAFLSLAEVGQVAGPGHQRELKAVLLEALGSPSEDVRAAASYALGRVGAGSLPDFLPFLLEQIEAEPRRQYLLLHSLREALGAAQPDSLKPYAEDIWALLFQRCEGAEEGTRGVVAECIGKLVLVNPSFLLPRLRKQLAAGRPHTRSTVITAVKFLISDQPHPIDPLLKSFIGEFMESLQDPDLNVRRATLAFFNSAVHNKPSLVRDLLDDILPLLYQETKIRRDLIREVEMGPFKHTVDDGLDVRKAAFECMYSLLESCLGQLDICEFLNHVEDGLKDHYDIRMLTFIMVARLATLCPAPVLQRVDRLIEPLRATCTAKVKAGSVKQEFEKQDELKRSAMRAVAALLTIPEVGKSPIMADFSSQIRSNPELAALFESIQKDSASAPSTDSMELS
# UniProt Q8N8R5: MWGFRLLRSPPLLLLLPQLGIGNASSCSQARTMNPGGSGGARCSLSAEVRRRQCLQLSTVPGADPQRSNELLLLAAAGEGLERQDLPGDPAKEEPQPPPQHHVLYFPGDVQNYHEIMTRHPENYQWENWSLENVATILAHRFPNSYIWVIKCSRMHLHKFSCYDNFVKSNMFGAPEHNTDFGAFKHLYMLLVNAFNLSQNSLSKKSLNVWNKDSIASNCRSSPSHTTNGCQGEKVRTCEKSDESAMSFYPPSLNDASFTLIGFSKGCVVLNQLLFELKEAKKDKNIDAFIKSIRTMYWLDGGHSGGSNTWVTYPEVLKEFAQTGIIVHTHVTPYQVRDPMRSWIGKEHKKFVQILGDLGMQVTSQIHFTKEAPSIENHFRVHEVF
# UniProt Q96K31: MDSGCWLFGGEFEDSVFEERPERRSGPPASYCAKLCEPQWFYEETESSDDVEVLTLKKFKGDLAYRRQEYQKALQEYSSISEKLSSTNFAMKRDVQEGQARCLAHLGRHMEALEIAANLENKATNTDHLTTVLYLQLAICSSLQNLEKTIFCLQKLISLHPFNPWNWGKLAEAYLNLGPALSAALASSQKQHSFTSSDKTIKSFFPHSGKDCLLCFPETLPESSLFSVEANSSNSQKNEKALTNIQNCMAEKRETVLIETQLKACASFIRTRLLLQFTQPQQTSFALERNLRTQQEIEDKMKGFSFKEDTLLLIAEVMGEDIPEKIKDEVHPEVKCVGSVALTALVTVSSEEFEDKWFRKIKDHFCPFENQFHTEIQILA
# UniProt P56211: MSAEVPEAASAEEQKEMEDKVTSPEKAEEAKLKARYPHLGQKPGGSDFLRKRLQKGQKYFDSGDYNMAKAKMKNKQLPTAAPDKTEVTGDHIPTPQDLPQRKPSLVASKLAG
# UniProt Q8IUR7, whole entry: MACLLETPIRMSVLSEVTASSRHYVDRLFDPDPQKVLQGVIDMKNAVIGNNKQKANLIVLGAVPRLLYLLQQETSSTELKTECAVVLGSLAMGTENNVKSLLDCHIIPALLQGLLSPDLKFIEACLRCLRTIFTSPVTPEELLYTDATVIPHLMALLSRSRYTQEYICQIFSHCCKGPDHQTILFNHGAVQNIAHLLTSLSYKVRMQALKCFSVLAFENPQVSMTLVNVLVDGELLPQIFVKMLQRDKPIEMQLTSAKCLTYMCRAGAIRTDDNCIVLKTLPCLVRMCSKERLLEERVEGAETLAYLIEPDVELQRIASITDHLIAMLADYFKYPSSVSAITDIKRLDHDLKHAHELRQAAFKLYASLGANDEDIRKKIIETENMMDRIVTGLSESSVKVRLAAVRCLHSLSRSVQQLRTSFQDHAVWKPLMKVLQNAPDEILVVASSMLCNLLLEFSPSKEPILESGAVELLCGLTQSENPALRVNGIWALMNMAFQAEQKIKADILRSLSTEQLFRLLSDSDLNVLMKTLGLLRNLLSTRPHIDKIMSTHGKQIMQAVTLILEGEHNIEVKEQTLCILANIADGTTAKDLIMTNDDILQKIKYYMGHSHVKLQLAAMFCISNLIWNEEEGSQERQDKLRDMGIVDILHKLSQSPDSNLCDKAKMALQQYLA
# Compound: Nc1nc2c(ncn2[C@@H]2O[C@H](COP(=O)(O)OP(=O)(O)OP(=O)(O)O)[C@@H](O)[C@H]2O)c(=O)[nH]1
# Assay: dose-dependent thermal stabilisation call (2D-TPP, DLPTP, 10% FDR) (binary (1 = stabilised)); higher = stabilised by the compound
# Details: system: Jurkat gel-filtered lysate; concentration range 1-500 µM
# Protocol: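 2D thermal proteome profiling in gel-filtered Jurkat E6.1 lysate (2 mg/ml) treated with NaGTP (0, 1, 10, 100, 500 uM) for 10 min at room temperature, then heated 3 min at one of 12 temperatures (42-63.9 C). Soluble protein was quantified by TMT10 MS. The value is the DLPTP call of the paper: dose-dependent thermal stabilisation over all temperatures at 10% FDR (F-test of a dose-response against a flat model); one experiment, one call per tested protein.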
row,Target,dose-dependent thermal stabilisation call
1,BTAF1 (UniProt O14981),active: 1
2,BCR (UniProt P11274),inactive: 0
3,BRF1 (UniProt Q92994),inactive: 0
4,BRAT1 (UniProt Q6PJG6),inactive: 0
5,C11orf84 (UniProt Q9BUA3),inactive: 0
6,CALCOCO2 (UniProt Q13137),inactive: 0
7,CAPZB (UniProt P47756),inactive: 0
8,C9orf142 (UniProt Q9BUH6),inactive: 0
9,ATF2 (UniProt P15336),inactive: 0
10,C15orf40 (UniProt Q8WUR7),inactive: 0
11,BICD1 (UniProt Q96G01),active: 1
12,ATG13 (UniProt O75143),inactive: 0
13,BIN2 (UniProt Q9UBW5),inactive: 0
14,ASPM (UniProt Q8IZT6),inactive: 0
15,AZI2 (UniProt Q9H6S1),inactive: 0
16,ATPIF1 (UniProt Q9UII2),inactive: 0
17,C11orf96 (UniProt Q7Z7L8),inactive: 0
18,ATP6V1A (UniProt P38606),inactive: 0
19,BRIP1 (UniProt Q9BX63),inactive: 0
20,ATF7 (UniProt P17544),inactive: 0

# Given with bars between the fields: entries from further up
row | Target | dose-dependent thermal stabilisation call
12 | ATG13 (UniProt O75143) | inactive: 0
13 | BIN2 (UniProt Q9UBW5) | inactive: 0
14 | ASPM (UniProt Q8IZT6) | inactive: 0
15 | AZI2 (UniProt Q9H6S1) | inactive: 0
16 | ATPIF1 (UniProt Q9UII2) | inactive: 0
17 | C11orf96 (UniProt Q7Z7L8) | inactive: 0
18 | ATP6V1A (UniProt P38606) | inactive: 0

# The results go on:

row,Target,dose-dependent thermal stabilisation call
1,ATG4C (UniProt Q96DT6),inactive: 0
2,ARPC1A (UniProt Q92747),active: 1
3,ASRGL1 (UniProt Q7L266),inactive: 0
4,BCL11B (UniProt Q9C0K0),inactive: 0
5,B3GNTL1 (UniProt Q67FW5),inactive: 0
6,C15orf57 (UniProt Q9BV29),inactive: 0
7,ATG5 (UniProt Q9H1Y0),inactive: 0
8,CADM4 (UniProt Q8NFZ8),inactive: 0
9,CAND2 (UniProt O75155),inactive: 0
10,BECN1 (UniProt Q14457),inactive: 0
11,C2orf69 (UniProt Q8N8R5),inactive: 0
12,ARHGEF2 (UniProt Q92974),inactive: 0
13,BIRC2 (UniProt Q13490),inactive: 0
14,BCL9L (UniProt Q86UU0),inactive: 0
15,BCKDHA (UniProt P12694),active: 1
16,C5orf24 (UniProt Q7Z6I8),inactive: 0
17,C8orf76 (UniProt Q96K31),inactive: 0
18,ATF1 (UniProt P18846),inactive: 0
19,ARPP19 (UniProt P56211),inactive: 0
20,ARMC8 (UniProt Q8IUR7),inactive: 0

# Reference: the supplement of paper PMC7666118
